Values from PubChem BioAssay AID686937 (Drosophila RNAi Screening Center, 2013).
Aim: 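Knock-downs that reduce output of a secreted reporter enzyme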 (primary screen). Cell system: Drosophila S2 cells expressing secreted horseradish peroxidase. Reagents: long dsRNA against Drosophila genes. Timing: about 5.5 days (5 days dsRNA, then 12 h reporter induction). Treatment: reporter expression induced after 5 days of dsRNA, read 12 h later; inducer not stated. Measured: 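Chemiluminescent measurement of peroxidase in the medium 12 h after reporter induction, following 5 days of dsRNA, given as a z-score per plate; higher means more secretion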. Direction: z-score: higher = more reporter secreted into medium.
The deposit covers about 23,000 reagents; below is a random part of those with a known target gene and a result. 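Reduced-secretion tags in replicate 1 do not always agree with the z-scores; no criterion for assigning the tags was given.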 Reagents against one gene are numbered here. Further read-outs or replicates are left out here. No sequences are given here. Not stated in the record: the amount of reagent.

With Gem2, what was measured?
z-score, replicate 1: -0.03

For CG6125, what does the deposit list?
z-score, replicate 1: 0.34

With Or7a, what does the deposit list?
z-score, replicate 1: 0.25

Which result is listed for CG2120?
z-score, replicate 1: 0.27

Which result is listed for Dad?
z-score, replicate 1: -0.04

How did the screen score Mink?
z-score, replicate 1: 0.24

What did the screen give for CG10474?
z-score, replicate 1: 0.09

With Osi14, what was measured?
z-score, replicate 1: 0.4

With CG11275, what was measured?
z-score, replicate 1: 0.47

How did the screen score CG3609?
z-score, replicate 1: 0.35

With pdgy #1, what was measured?
z-score, replicate 1: -0.08

How did the screen score pdgy #2?
z-score, replicate 1: 0.07

Which result is listed for CG11635?
z-score, replicate 1: 0.33

What is on record for betaNACtes5?
z-score, replicate 1: 0.58

For CG13693, how do the results read?
z-score, replicate 1: 0.27

How did the screen score Mpp6?
z-score, replicate 1: 0.17

For Prosalpha7, how do the results read?
z-score, replicate 1: -4.69; phenotype, replicate 1: reduced secretion

With PI31, what was measured?
z-score, replicate 1: 0.49

With CG18294, how do the results read?
z-score, replicate 1: 0.28

For RpL39, what does the deposit list?
z-score, replicate 1: -2.71; phenotype, replicate 1: reduced secretion

For CG42402, how do the results read?
z-score, replicate 1: 0.21

With EMRE, what does the deposit list?
z-score, replicate 1: 0.54

For sky #1, what does the deposit list?
z-score, replicate 1: 0.15

What is on record for sky #2?
z-score, replicate 1: 0.15

How did the screen score sky #3?
z-score, replicate 1: 0.2

For Sec6, what does the deposit list?
z-score, replicate 1: 0.34

How did the screen score mal?
z-score, replicate 1: 0.28

Part of the list above, reformatted:
predicted target,reagent no.,"z-score, replicate 1","phenotype, replicate 1"
CG2120,1,0.27,
Dad,1,-0.04,
Mink,1,0.24,
